No constants are given. Whether binding was seen depends on the method and setting. Binding seen in cells or lysates may run through a third protein. Some binding calls cover weakened binding; strength is not graded here.

Sequences of proteins named here, by UniProt entry; tags and fusion partners are left off.
UniProt Q9QZ81: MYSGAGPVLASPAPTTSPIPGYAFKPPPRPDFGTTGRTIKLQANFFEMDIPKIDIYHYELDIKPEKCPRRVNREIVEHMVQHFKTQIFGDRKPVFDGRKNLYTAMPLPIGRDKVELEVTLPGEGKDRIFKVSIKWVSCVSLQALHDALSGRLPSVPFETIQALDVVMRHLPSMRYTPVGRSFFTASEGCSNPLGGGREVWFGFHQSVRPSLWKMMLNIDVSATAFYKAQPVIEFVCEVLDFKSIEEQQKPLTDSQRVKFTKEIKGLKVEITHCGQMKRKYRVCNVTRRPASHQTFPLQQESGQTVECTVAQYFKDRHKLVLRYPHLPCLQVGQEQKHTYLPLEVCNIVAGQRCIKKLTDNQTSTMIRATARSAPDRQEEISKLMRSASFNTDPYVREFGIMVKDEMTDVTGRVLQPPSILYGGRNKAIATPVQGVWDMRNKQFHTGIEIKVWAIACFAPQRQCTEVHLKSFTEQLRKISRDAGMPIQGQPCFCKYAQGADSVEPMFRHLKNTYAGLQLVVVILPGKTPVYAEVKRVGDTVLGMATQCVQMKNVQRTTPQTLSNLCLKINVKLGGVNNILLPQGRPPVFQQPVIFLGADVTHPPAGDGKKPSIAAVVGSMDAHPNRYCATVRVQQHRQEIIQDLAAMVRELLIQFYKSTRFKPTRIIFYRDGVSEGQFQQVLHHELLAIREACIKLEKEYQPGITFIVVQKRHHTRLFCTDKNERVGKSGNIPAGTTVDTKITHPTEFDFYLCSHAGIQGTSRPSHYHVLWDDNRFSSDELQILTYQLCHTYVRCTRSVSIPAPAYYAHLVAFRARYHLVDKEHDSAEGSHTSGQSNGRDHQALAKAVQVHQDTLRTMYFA

The target in this assay is T1, TRBP (HIV1‐TAR RNA Binding Protein) (rat (endogenous in primary cortical neurons)) (UniProt Q3SWU0).
T1 sequence: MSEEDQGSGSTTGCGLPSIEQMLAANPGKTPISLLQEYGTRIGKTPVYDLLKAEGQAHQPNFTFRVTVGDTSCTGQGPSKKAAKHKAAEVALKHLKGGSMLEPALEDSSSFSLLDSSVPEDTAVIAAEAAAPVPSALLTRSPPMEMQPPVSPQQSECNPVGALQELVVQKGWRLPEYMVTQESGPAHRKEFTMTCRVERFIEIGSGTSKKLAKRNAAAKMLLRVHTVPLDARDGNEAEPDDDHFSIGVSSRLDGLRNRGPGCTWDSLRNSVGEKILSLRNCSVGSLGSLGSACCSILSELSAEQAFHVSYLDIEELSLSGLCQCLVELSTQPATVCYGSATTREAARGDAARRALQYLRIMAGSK
Kind of assay: co-IP; membrane fractions of 7 DIV rat cortical neurons isolated by sequential detergent extraction; IgG control or 2 and 5 ug monoclonal anti-TRBP antibody; immunoblot. Background: A western blot detects proteins with antibodies after separation by electrophoresis.

As for Ago2 (from UniProt Q9QZ81 1-860), the binding result is recorded as “binds”.
